Patent US20250129166A1
No constants are given. Whether binding was seen depends on the method and setting. Some entries that bind do so weakly or less than the wild type.

Sequences of proteins named here, by UniProt entry; tags and fusion partners are left off. A change or cut given only in a name is not applied to a line headed by its entry.
UniProt Q9H7M9: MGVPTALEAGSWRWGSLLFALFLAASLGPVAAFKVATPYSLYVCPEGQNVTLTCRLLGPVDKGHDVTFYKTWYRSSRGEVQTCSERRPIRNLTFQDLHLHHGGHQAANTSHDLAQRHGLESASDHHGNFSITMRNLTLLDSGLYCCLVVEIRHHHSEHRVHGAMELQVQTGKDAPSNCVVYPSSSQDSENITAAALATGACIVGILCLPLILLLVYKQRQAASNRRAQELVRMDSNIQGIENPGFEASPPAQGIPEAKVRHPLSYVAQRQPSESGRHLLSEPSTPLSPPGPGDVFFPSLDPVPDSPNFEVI

What was measured:
[1] = target: monovalent hVISTA-ECD (amino acids 32-193 of SEQ ID NO: 1 with a 7xHis tail) (human) (UniProt Q9H7M9); assay: SPR, mAb on Protein A, 100 nM hVISTA-ECD, 37C, pH 7.4, 6.7 and 6.0
[2] = target: monovalent hVISTA-ECD (amino acids 32-193 of SEQ ID NO: 1 with a 7xHis tail) (human) (UniProt Q9H7M9); assay: SPR, mAb captured on Protein A, 100 nM hVISTA-ECD, 37 C, pH 7.4, 6.7 and 6.0, normalized sensorgrams

B1: VISTA.5 (mAb1) (antibody, V domains shown)
VH: AVQLQESGPGLVRPSQSLSLTCTVTDYSITSDYAWNWIRQFPGSKLEWLGFIGYSGNTNYNPSLESRISITRHTSKNQFFLHLNSMTTEDTATYYCARSLYGGSHWYFDVWGAGTTVTVSS
VL: DIVLTQSPASLAVSLGQRATISCRGSESVEYYGTILMQWYQQKPGQPPKLLIYGASNVESGVPARFSGSGSGTDFSLNIHPVEEDDIAMYFCQQSRKVPWTFGGGTKLEIK
[1]
  binding: binds
[2]
  binding: binds
